Laboratory results published in the supplement of paper PMC12067093, “Discovery and optimisation of a covalent ligand for TRIM25 and its application to targeted protein ubiquitination” (Chemical Science, 2025).
This is one part of the list.
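Note: competitive profiling in live THP-1 cells: cysteine peptides tagged with an iodoacetamide desthiobiotin (IA-DTB) probe, intensity after compound treatment relative to DMSO-treated cells.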

Each target was assayed with Cc1cc(ccc1-c1ccccc1)C(=O)N1CCCN(CC1)C(=O)CCl [compound 10] (assay: probe-labelled cysteine peptide fold change vs DMSO (competition) (log2 fold change); higher = less target engagement (more negative = stronger competition)). Conditions: 10 µM; THP-1; incubation time: 4 h.
With “HSPA14_Q0VDF9_394_ENLLVEDSLMIECSAR (UniProt Q0VDF9)” the “probe-labelled cysteine peptide fold change” value was -0.517.
In the case of “HUS1_O60921_44_LNFILCDK (UniProt O60921)”, the “probe-labelled cysteine peptide fold change” value is reported as 0.0823.
In the case of “HSPA4L_O95757_540_CHAEHTPEEEIDHTGAK (UniProt O95757)”, the “probe-labelled cysteine peptide fold change” value is reported as -0.0538.
With “HPDL_Q96IR7_9_LCHIAFHVPAGQPLAR (UniProt Q96IR7)” the “probe-labelled cysteine peptide fold change” value was -0.0155.
“HSPA8_P11142_17_GPAVGIDLGTTYSCVGVFQHGK (UniProt P11142)” was tested, and the “probe-labelled cysteine peptide fold change” value was 0.177.
In the case of “HSPA8_P11142_17_SKGPAVGIDLGTTYSCVGVFQHGK (UniProt P11142)”, the “probe-labelled cysteine peptide fold change” value is reported as -0.0412.
For “HTT_P42858_2792_VGALHGVLYVLECDLLDDTAK (UniProt P42858)”, the “probe-labelled cysteine peptide fold change” value was -0.0059.
“HPS6_Q86YV9_164_AEGPSGSPAAAFSHCVCVR (UniProt Q86YV9)” was tested, and the “probe-labelled cysteine peptide fold change” value was 0.219.
In the case of “HSPH1_Q92598_140_KPVTDCVISVPSFFTDAERR (UniProt Q92598)”, the “probe-labelled cysteine peptide fold change” value is reported as -0.0465.
For “HPCAL1_P37235_38_DCPTGHLTVDEFKK (UniProt P37235)”, the “probe-labelled cysteine peptide fold change” value was 0.0704.
“HNRNPF_P52597_22+34_GLPWSCSVEDVQNFLSDCTIHDGAAGVHFIYTR (UniProt P52597)” was tested, and the “probe-labelled cysteine peptide fold change” value was 0.101.
“HNRNPK_P61978_185_LFQECCPHSTDR (UniProt P61978)” was tested, and the “probe-labelled cysteine peptide fold change” value was -0.0248.
For “HSPA9_P38646_366_TIAPCQK (UniProt P38646)”, the “probe-labelled cysteine peptide fold change” value was -0.191.
With “HTATSF1_O43719_295_NMFHPMDFEDDPLVLNEIREDLRVECSK (UniProt O43719)” the “probe-labelled cysteine peptide fold change” value was -0.0251.
With “HPS1_Q92902_165_EQEQCFAVEALER (UniProt Q92902)” the “probe-labelled cysteine peptide fold change” value was 0.0503.
With “HNRNPK_P61978_184+185_LFQECCPHSTDR (UniProt P61978)” the “probe-labelled cysteine peptide fold change” value was 0.0492.
For “HPS3_Q969F9_831_TSEDLINACSHYGLIYPWVHVVISSDSLADK (UniProt Q969F9)”, the “probe-labelled cysteine peptide fold change” value was 0.0684.
“HSPH1_Q92598_310_SQFEELCAELLQK (UniProt Q92598)” was tested, and the “probe-labelled cysteine peptide fold change” value was -0.0659.
In the case of “HNRNPUL1_Q9BUJ2_532_KAIVICPTDEDLK (UniProt Q9BUJ2)”, the “probe-labelled cysteine peptide fold change” value is reported as -0.232.
“HSPA2_P54652_18_GPAIGIDLGTTYSCVGVFQHGK (UniProt P54652)” was tested, and the “probe-labelled cysteine peptide fold change” value was 0.213.
For “HNRNPU_Q00839_497_KDCEVVMMIGLPGAGK (UniProt Q00839)”, the “probe-labelled cysteine peptide fold change” value was 0.0615.
“HNRNPUL2_Q1KMD3_518_DLLVQQASQCLSK (UniProt Q1KMD3)” was tested, and the “probe-labelled cysteine peptide fold change” value was 0.0636.
“HTT_P42858_1152_VINICAHVLDDVAPGPAIK (UniProt P42858)” was tested, and the “probe-labelled cysteine peptide fold change” value was 0.114.
With “HPS5_Q9UPZ3_1085_AWSLLQECGLALELSEK (UniProt Q9UPZ3)” the “probe-labelled cysteine peptide fold change” value was 0.116.
In the case of “HNRNPF_P52597_267_DLSYCLSGMYDHR (UniProt P52597)”, the “probe-labelled cysteine peptide fold change” value is reported as 0.0306.
In the case of “HSPA4L_O95757_38_CTPACISLGSR (UniProt O95757)”, the “probe-labelled cysteine peptide fold change” value is reported as 0.225.
In the case of “HSPBP1_Q9NZL4_201_LLDRDACDTVR (UniProt Q9NZL4)”, the “probe-labelled cysteine peptide fold change” value is reported as -0.444.
“HNRNPD_Q14103_226_RGFCFITFK (UniProt Q14103)” was tested, and the “probe-labelled cysteine peptide fold change” value was 0.129.
For “HNRNPA1L2_Q32P51_175_GHNCEVR (UniProt Q32P51)”, the “probe-labelled cysteine peptide fold change” value was 0.196.
In the case of “HSF1_Q00613_153_GKQECMDSK (UniProt Q00613)”, the “probe-labelled cysteine peptide fold change” value is reported as -0.19.
“HNRNPA3_P51991_64_WGTLTDCVVMR (UniProt P51991)” was tested, and the “probe-labelled cysteine peptide fold change” value was -0.0374.
In the case of “HNRNPA3_P51991_85+94_GFGFVTYSCVEEVDAAMCAR (UniProt P51991)”, the “probe-labelled cysteine peptide fold change” value is reported as 0.36.
“HSD17B4_P51659_189_SNIHCNTIAPNAGSR (UniProt P51659)” was tested, and the “probe-labelled cysteine peptide fold change” value was -0.0918.
With “HSPA8_P11142_603_VCNPIITK (UniProt P11142)” the “probe-labelled cysteine peptide fold change” value was 0.0489.
In the case of “HSPA4_P34932_34+38_CTPACISFGPK (UniProt P34932)”, the “probe-labelled cysteine peptide fold change” value is reported as -0.00552.
“HUWE1_Q7Z6Z7_1832_HIIEDPCTLR (UniProt Q7Z6Z7)” was tested, and the “probe-labelled cysteine peptide fold change” value was -0.188.

Same assay, conditions: 50 µM; THP-1; incubation time: 4 h
“HSPA14_Q0VDF9_394_ENLLVEDSLMIECSAR (UniProt Q0VDF9)” was tested, and the “probe-labelled cysteine peptide fold change” value was 0.513.
In the case of “HUS1_O60921_44_LNFILCDK (UniProt O60921)”, the “probe-labelled cysteine peptide fold change” value is reported as -0.125.
With “HSPA4L_O95757_540_CHAEHTPEEEIDHTGAK (UniProt O95757)” the “probe-labelled cysteine peptide fold change” value was -0.483.
In the case of “HPDL_Q96IR7_9_LCHIAFHVPAGQPLAR (UniProt Q96IR7)”, the “probe-labelled cysteine peptide fold change” value is reported as -0.111.
In the case of “HSPA8_P11142_17_GPAVGIDLGTTYSCVGVFQHGK (UniProt P11142)”, the “probe-labelled cysteine peptide fold change” value is reported as 0.113.
“HSPA8_P11142_17_SKGPAVGIDLGTTYSCVGVFQHGK (UniProt P11142)” was tested, and the “probe-labelled cysteine peptide fold change” value was -0.434.
With “HTT_P42858_2792_VGALHGVLYVLECDLLDDTAK (UniProt P42858)” the “probe-labelled cysteine peptide fold change” value was 0.169.
With “HPS6_Q86YV9_164_AEGPSGSPAAAFSHCVCVR (UniProt Q86YV9)” the “probe-labelled cysteine peptide fold change” value was -0.0783.
With “HSPH1_Q92598_140_KPVTDCVISVPSFFTDAERR (UniProt Q92598)” the “probe-labelled cysteine peptide fold change” value was 0.116.
For “HPCAL1_P37235_38_DCPTGHLTVDEFKK (UniProt P37235)”, the “probe-labelled cysteine peptide fold change” value was 0.00972.
In the case of “HNRNPF_P52597_22+34_GLPWSCSVEDVQNFLSDCTIHDGAAGVHFIYTR (UniProt P52597)”, the “probe-labelled cysteine peptide fold change” value is reported as 0.0921.
In the case of “HNRNPK_P61978_185_LFQECCPHSTDR (UniProt P61978)”, the “probe-labelled cysteine peptide fold change” value is reported as -0.148.
With “HSPA9_P38646_366_TIAPCQK (UniProt P38646)” the “probe-labelled cysteine peptide fold change” value was 0.0446.
With “HTATSF1_O43719_295_NMFHPMDFEDDPLVLNEIREDLRVECSK (UniProt O43719)” the “probe-labelled cysteine peptide fold change” value was -0.488.
“HPS1_Q92902_165_EQEQCFAVEALER (UniProt Q92902)” was tested, and the “probe-labelled cysteine peptide fold change” value was 0.389.
With “HNRNPK_P61978_184+185_LFQECCPHSTDR (UniProt P61978)” the “probe-labelled cysteine peptide fold change” value was -0.501.
For “HPS3_Q969F9_831_TSEDLINACSHYGLIYPWVHVVISSDSLADK (UniProt Q969F9)”, the “probe-labelled cysteine peptide fold change” value was 0.149.
In the case of “HSPH1_Q92598_310_SQFEELCAELLQK (UniProt Q92598)”, the “probe-labelled cysteine peptide fold change” value is reported as 0.0349.
“HNRNPUL1_Q9BUJ2_532_KAIVICPTDEDLK (UniProt Q9BUJ2)” was tested, and the “probe-labelled cysteine peptide fold change” value was -0.995.
“HSPA2_P54652_18_GPAIGIDLGTTYSCVGVFQHGK (UniProt P54652)” was tested, and the “probe-labelled cysteine peptide fold change” value was 0.129.
With “HNRNPU_Q00839_497_KDCEVVMMIGLPGAGK (UniProt Q00839)” the “probe-labelled cysteine peptide fold change” value was -0.0189.
With “HNRNPUL2_Q1KMD3_518_DLLVQQASQCLSK (UniProt Q1KMD3)” the “probe-labelled cysteine peptide fold change” value was 0.153.
With “HTT_P42858_1152_VINICAHVLDDVAPGPAIK (UniProt P42858)” the “probe-labelled cysteine peptide fold change” value was 0.193.
In the case of “HPS5_Q9UPZ3_1085_AWSLLQECGLALELSEK (UniProt Q9UPZ3)”, the “probe-labelled cysteine peptide fold change” value is reported as 0.0637.
“HNRNPF_P52597_267_DLSYCLSGMYDHR (UniProt P52597)” was tested, and the “probe-labelled cysteine peptide fold change” value was -0.242.
For “HSPA4L_O95757_38_CTPACISLGSR (UniProt O95757)”, the “probe-labelled cysteine peptide fold change” value was 0.07.
“HSPBP1_Q9NZL4_201_LLDRDACDTVR (UniProt Q9NZL4)” was tested, and the “probe-labelled cysteine peptide fold change” value was -0.745.
With “HNRNPD_Q14103_226_RGFCFITFK (UniProt Q14103)” the “probe-labelled cysteine peptide fold change” value was 0.13.
“HNRNPA1L2_Q32P51_175_GHNCEVR (UniProt Q32P51)” was tested, and the “probe-labelled cysteine peptide fold change” value was 0.502.
For “HSF1_Q00613_153_GKQECMDSK (UniProt Q00613)”, the “probe-labelled cysteine peptide fold change” value was -0.744.
For “HNRNPA3_P51991_64_WGTLTDCVVMR (UniProt P51991)”, the “probe-labelled cysteine peptide fold change” value was 0.0318.
“HNRNPA3_P51991_85+94_GFGFVTYSCVEEVDAAMCAR (UniProt P51991)” was tested, and the “probe-labelled cysteine peptide fold change” value was 0.259.
“HSD17B4_P51659_189_SNIHCNTIAPNAGSR (UniProt P51659)” was tested, and the “probe-labelled cysteine peptide fold change” value was -0.0136.
In the case of “HSPA8_P11142_603_VCNPIITK (UniProt P11142)”, the “probe-labelled cysteine peptide fold change” value is reported as 0.0629.
For “HSPA4_P34932_34+38_CTPACISFGPK (UniProt P34932)”, the “probe-labelled cysteine peptide fold change” value was -0.423.
In the case of “HUWE1_Q7Z6Z7_1832_HIIEDPCTLR (UniProt Q7Z6Z7)”, the “probe-labelled cysteine peptide fold change” value is reported as -0.295.
